Test results published in the supplement of paper PMC6411743.
± gives the standard deviation of the averaged measurements. Only a part is listed here, and it is no random draw.

By UniProt entry, the sequences of proteins in these tests, tags left out. Where a name states a change or a piece, a line headed by the entry shows the natural chain unless it says otherwise.
UniProt O95433, whole entry: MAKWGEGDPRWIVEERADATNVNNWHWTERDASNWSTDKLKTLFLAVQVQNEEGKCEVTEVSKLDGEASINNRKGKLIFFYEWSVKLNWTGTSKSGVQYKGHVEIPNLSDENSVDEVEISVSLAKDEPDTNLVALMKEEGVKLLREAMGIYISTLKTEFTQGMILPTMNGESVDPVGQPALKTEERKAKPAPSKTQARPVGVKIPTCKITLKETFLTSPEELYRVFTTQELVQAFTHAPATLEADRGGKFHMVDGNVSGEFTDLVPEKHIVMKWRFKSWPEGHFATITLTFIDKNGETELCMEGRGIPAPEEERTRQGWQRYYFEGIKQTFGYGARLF
UniProt O60476: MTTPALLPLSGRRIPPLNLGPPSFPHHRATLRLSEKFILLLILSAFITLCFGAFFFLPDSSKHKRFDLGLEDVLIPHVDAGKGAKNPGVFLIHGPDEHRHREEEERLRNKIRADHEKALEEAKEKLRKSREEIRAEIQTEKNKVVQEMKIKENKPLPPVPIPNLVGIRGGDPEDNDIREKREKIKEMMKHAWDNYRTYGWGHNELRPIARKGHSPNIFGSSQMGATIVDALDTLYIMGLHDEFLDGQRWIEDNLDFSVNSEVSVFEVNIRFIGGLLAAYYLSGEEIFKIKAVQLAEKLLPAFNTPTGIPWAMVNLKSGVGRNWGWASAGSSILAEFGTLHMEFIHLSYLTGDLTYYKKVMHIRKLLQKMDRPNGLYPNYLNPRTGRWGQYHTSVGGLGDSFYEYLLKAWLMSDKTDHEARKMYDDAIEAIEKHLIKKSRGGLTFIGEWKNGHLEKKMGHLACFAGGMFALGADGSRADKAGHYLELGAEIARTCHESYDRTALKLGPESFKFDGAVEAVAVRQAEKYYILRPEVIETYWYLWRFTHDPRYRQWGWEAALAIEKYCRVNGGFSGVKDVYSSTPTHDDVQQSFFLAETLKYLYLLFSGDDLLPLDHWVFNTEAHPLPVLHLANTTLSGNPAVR
UniProt O95149, whole entry: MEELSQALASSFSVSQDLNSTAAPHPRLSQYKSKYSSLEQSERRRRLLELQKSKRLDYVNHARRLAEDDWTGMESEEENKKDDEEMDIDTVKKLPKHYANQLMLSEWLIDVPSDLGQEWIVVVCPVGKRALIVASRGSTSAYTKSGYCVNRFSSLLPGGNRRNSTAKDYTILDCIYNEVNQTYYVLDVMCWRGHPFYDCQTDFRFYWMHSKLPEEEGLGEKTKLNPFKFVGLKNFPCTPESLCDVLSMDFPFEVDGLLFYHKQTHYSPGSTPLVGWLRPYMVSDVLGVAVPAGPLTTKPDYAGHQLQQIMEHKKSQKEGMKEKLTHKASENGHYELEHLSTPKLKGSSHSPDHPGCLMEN
UniProt O95551: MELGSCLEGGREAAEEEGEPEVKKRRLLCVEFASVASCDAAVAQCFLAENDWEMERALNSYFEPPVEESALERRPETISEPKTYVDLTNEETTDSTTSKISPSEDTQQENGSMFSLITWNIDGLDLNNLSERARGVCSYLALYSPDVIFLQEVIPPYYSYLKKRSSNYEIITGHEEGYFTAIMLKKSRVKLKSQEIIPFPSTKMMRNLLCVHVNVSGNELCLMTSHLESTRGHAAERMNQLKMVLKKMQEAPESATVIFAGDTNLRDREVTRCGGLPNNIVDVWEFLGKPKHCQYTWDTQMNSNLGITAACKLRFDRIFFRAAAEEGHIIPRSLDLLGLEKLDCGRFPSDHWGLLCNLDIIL
UniProt O75616: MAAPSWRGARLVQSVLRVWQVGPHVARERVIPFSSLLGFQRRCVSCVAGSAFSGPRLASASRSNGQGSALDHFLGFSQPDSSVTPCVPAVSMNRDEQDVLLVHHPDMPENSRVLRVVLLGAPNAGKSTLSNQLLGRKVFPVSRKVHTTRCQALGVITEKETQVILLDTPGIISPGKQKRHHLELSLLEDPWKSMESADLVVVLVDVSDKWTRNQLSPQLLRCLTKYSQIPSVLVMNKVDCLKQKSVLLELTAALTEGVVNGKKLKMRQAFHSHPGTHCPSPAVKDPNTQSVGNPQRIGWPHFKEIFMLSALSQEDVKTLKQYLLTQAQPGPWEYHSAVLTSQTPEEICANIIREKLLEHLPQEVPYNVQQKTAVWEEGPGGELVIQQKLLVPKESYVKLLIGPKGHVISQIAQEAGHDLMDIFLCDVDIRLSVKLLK
UniProt O75976: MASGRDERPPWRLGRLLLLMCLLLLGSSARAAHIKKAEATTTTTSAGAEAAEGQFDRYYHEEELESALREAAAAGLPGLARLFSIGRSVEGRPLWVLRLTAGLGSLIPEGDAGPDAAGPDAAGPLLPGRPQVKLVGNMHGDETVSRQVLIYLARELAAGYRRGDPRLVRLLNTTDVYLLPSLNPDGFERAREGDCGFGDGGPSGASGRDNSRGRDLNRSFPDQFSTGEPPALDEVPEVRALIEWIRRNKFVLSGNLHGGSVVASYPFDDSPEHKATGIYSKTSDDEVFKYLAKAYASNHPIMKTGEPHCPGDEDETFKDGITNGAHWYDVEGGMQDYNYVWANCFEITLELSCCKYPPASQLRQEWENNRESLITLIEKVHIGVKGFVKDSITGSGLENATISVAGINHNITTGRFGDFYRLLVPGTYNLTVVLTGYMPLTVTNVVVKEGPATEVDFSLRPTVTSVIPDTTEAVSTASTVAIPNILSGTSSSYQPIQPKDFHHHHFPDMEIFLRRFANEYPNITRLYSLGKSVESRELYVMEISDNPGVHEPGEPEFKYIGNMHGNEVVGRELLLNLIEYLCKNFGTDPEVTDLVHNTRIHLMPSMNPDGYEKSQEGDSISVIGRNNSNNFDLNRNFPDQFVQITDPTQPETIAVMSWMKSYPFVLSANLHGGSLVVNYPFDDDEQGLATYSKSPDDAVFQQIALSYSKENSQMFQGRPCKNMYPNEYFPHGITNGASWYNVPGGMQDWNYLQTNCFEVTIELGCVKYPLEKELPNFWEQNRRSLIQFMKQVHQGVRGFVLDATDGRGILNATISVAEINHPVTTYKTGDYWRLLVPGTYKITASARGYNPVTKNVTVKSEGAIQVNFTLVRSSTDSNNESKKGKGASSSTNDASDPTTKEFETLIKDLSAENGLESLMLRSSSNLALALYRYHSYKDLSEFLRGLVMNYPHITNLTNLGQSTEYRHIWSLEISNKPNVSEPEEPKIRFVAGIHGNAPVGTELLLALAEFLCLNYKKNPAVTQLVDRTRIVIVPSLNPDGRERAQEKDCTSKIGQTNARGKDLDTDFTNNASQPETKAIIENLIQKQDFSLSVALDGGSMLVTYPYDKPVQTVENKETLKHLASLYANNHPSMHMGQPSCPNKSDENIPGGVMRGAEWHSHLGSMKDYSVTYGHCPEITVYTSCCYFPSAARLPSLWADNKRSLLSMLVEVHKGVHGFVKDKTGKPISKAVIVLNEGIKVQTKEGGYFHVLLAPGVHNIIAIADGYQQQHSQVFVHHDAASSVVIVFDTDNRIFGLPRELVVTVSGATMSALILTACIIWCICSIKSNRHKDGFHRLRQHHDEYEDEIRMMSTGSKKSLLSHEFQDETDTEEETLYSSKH
UniProt O95197: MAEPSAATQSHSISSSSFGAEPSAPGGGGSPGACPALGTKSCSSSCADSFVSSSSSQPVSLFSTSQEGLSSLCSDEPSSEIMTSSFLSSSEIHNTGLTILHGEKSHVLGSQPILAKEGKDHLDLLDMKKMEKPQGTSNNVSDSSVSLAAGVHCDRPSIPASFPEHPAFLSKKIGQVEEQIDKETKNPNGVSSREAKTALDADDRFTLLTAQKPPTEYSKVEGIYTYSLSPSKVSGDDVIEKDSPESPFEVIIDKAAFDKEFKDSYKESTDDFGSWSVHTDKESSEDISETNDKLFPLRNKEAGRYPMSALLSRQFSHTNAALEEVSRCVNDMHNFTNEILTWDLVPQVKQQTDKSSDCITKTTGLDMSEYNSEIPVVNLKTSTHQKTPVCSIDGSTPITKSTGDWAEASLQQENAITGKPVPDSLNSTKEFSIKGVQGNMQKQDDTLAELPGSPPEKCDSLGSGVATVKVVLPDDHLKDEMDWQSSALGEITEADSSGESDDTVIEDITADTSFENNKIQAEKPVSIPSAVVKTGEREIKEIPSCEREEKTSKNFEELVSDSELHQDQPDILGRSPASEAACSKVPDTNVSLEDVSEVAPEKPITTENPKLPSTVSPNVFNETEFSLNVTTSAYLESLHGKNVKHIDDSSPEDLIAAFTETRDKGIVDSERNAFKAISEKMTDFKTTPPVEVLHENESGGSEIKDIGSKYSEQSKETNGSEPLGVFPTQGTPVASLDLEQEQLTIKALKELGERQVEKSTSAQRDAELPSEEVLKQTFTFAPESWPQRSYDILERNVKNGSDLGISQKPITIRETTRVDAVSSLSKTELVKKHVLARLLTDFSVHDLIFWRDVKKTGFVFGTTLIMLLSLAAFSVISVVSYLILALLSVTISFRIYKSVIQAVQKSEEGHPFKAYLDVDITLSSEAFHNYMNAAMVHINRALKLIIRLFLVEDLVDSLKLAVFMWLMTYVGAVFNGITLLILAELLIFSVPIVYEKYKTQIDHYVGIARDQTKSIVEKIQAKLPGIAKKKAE
UniProt O76031, whole entry: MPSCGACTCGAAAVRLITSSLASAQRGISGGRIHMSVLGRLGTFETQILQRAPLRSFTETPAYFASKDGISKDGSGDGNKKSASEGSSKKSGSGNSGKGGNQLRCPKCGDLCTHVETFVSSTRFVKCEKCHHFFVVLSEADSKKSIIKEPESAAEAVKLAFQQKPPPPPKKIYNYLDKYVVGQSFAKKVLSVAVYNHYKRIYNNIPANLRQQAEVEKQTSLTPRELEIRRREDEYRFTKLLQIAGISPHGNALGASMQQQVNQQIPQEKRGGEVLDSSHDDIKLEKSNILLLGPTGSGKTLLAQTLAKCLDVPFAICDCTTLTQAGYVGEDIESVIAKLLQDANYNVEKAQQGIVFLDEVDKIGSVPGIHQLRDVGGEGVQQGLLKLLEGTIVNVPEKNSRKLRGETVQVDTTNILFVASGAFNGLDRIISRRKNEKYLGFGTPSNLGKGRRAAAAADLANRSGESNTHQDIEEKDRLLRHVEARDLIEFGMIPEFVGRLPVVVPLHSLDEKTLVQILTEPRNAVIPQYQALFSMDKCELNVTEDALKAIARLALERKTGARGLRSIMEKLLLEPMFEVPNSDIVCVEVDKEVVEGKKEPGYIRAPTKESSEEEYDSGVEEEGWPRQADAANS
UniProt O75330: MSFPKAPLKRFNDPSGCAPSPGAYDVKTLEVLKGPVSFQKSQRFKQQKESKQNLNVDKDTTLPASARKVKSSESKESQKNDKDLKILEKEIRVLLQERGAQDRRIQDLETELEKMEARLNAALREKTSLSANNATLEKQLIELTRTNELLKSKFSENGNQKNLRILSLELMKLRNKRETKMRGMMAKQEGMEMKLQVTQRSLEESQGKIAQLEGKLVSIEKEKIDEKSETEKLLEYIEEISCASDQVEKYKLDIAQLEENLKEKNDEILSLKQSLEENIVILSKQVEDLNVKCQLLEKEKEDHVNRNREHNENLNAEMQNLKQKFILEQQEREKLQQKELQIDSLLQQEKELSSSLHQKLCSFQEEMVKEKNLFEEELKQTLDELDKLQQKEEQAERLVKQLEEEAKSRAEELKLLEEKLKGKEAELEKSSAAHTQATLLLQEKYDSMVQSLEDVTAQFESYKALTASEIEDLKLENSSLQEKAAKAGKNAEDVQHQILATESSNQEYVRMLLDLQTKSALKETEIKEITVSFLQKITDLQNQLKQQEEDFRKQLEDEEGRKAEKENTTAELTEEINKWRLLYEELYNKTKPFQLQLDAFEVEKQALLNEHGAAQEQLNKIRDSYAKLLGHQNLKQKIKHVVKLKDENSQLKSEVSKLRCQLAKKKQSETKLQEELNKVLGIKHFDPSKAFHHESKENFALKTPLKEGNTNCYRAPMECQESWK
UniProt O75746: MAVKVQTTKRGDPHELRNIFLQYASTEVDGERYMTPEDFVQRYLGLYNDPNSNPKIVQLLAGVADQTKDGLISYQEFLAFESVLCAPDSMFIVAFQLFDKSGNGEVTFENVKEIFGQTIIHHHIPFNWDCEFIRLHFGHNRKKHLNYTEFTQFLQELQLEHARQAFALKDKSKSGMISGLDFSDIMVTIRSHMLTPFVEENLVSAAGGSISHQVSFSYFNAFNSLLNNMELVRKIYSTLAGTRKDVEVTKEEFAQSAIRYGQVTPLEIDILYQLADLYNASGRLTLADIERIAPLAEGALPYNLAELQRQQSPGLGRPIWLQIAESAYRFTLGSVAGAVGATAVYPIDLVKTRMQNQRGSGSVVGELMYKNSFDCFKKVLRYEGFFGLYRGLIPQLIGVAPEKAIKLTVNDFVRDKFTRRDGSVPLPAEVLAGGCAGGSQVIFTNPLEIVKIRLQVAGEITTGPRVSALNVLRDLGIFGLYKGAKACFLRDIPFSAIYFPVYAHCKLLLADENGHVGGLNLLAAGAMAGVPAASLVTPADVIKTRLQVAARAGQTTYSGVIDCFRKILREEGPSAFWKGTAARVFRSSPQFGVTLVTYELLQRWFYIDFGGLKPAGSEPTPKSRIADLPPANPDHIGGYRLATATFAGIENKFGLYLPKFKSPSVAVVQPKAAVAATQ

Compound: Nc1ncnc2c1ncn2[C@@H]1O[C@H](COP(=O)(O)OP(=O)(O)OP(=O)(O)O)[C@@H](O)[C@H]1O [adenosine triphosphate]
Test: NP40-soluble protein abundance relative to vehicle (solubility fold change) (ratio); higher = more soluble protein in presence of ATP
Method in brief: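 Crude Jurkat lysate, prepared by Dounce homogenisation, was exposed to eight concentrations from 0.1 to 10 mM for 10 min at room temperature and then 3 min at 37 °C. Solubilisation used 0.8% NP40 with benzonase for 60 min at 4 °C, followed by ultracentrifugation and TMT labelling of the supernatant for LC-MS/MS. After vsn normalisation of intensities, each value is the fold change against the detergent-processed vehicle within each replicate, across three independent experiments.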

Target	NP40-soluble protein abundance (concentration: 1mM)	NP40-soluble protein abundance (concentration: 2mM)	NP40-soluble protein abundance (concentration: 4mM)	NP40-soluble protein abundance (concentration: 6mM)	NP40-soluble protein abundance (concentration: 8mM)	NP40-soluble protein abundance (concentration: 10mM)
UniProt O76062 and related entries	1 ± 0.15	1.01 ± 0.14	1.03 ± 0.15	0.885 ± 0.14	1.07 ± 0.075	0.984 ± 0.1
UniProt O75170-3|O75170-4|O75170-5|O75170	1.03 ± 0.034	0.993 ± 0.056	1.02 ± 0.067	1.03 ± 0.077	1 ± 0.057	0.996 ± 0.09
UniProt O94874	0.995 ± 0.054	1.04 ± 0.034	1.07 ± 0.026	1.1 ± 0.073	1.13 ± 0.037	1.175 ± 0.011
RP2 (UniProt O75695)	0.989 ± 0.025	0.98 ± 0.046	0.965 ± 0.05	0.966 ± 0.053	0.962 ± 0.051	0.952 ± 0.065
KBTBD11 (UniProt O94819)	1.01 ± 0.024	0.938 ± 0.021	1.01 ± 0.03	0.978 ± 0.07	0.966 ± 0.027	0.969 ± 0.039
ZFAND5 (UniProt O76080)	0.856 ± 0.05	0.874 ± 0.064	0.876 ± 0.054	0.933 ± 0.044	0.822 ± 0.036	0.846 ± 0.084
UniProt O94822 and related entries	1.08 ± 0.032	1.09 ± 0.1	1.05 ± 0.02	1.04 ± 0.033	1.07 ± 0.058	1.09 ± 0.069
AHSA1 (UniProt O95433)	0.986 ± 0.07	0.982 ± 0.061	0.944 ± 0.062	0.97 ± 0.077	0.958 ± 0.07	0.94 ± 0.057
UniProt O60858 and related entries	1.08 ± 0.024	1.102 ± 0.0075	1.05 ± 0.083	1.06 ± 0.067	1.06 ± 0.059	1.06 ± 0.046
UniProt O75410 and related entries	0.944 ± 0.065	0.954 ± 0.032	0.9509 ± 0.0038	0.97 ± 0.013	0.902 ± 0.03	0.908 ± 0.047
GIGYF1 (UniProt O75420)	1.24 ± 0.13	1.28 ± 0.11	1.25 ± 0.039	1.25 ± 0.083	1.18 ± 0.083	1.23 ± 0.099
MAN1A2 (UniProt O60476)	0.989 ± 0.067	0.992 ± 0.018	1.01 ± 0.031	0.984 ± 0.046	0.982 ± 0.017	0.987 ± 0.086
SNUPN (UniProt O95149)	0.995 ± 0.11	1.01 ± 0.1	0.998 ± 0.046	0.964 ± 0.11	0.998 ± 0.037	0.993 ± 0.038
UniProt O60830 and related entries	0.858 ± 0.09	0.916 ± 0.057	0.903 ± 0.048	0.831 ± 0.085	0.909 ± 0.058	0.939 ± 0.032
UniProt O95551	0.992 ± 0.044	0.962 ± 0.042	0.95 ± 0.045	0.946 ± 0.05	0.938 ± 0.045	0.923 ± 0.024
MTA2 (UniProt O94776)	1.01 ± 0.035	0.991 ± 0.041	0.976 ± 0.044	0.98 ± 0.086	1.01 ± 0.049	0.997 ± 0.064
UniProt O95696 and related entries	1.14 ± 0.12	1.15 ± 0.13	1.27 ± 0.11	1.29 ± 0.096	1.38 ± 0.068	1.49 ± 0.042
UniProt O94967 and related entries	1 ± 0.04	0.946 ± 0.031	0.998 ± 0.068	0.9654 ± 0.0075	0.921 ± 0.058	1.01 ± 0.077
MRPS14 (UniProt O60783)	0.94 ± 0.075	0.855 ± 0.13	0.884 ± 0.11	0.883 ± 0.27	0.834 ± 0.17	0.74 ± 0.17
ERAL1 (UniProt O75616)	1.15 ± 0.13	1.1 ± 0.14	1.17 ± 0.13	1.14 ± 0.24	1.11 ± 0.1	1.14 ± 0.3
CPD (UniProt O75976)	0.983 ± 0.021	0.985 ± 0.03	0.962 ± 0.034	0.972 ± 0.031	0.935 ± 0.031	0.955 ± 0.026
UniProt O95197 and related entries	1.01 ± 0.084	1 ± 0.05	0.937 ± 0.041	0.947 ± 0.22	0.94 ± 0.013	0.893 ± 0.047
UniProt O75396	0.951 ± 0.031	0.926 ± 0.018	0.915 ± 0.031	0.955 ± 0.043	0.925 ± 0.018	0.863 ± 0.068
UniProt O95613 and related entries	0.991 ± 0.052	0.955 ± 0.065	1.04 ± 0.031	1.02 ± 0.031	1.03 ± 0.011	1.01 ± 0.078
GMDS (UniProt O60547)	1.03 ± 0.12	1.01 ± 0.079	0.988 ± 0.097	0.956 ± 0.11	1.02 ± 0.089	0.985 ± 0.052
CLPX (UniProt O76031)	0.997 ± 0.032	0.999 ± 0.018	0.974 ± 0.033	1.02 ± 0.026	0.975 ± 0.041	1.01 ± 0.023
STAM2 (UniProt O75886)	0.931 ± 0.052	0.947 ± 0.027	0.954 ± 0.025	0.959 ± 0.017	0.895 ± 0.023	0.9 ± 0.028
UniProt O75330 and related entries	0.954 ± 0.045	0.986 ± 0.053	1.01 ± 0.07	1.01 ± 0.03	0.988 ± 0.054	0.997 ± 0.042
UniProt O75323	1.04 ± 0.062	0.999 ± 0.05	0.964 ± 0.016	0.976 ± 0.047	1.01 ± 0.044	0.958 ± 0.046
SLC25A12 (UniProt O75746)	0.998 ± 0.04	0.986 ± 0.025	0.984 ± 0.034	0.934 ± 0.02	1 ± 0.03	1.01 ± 0.023

Not a retest: an excerpt of the list.
Target	NP40-soluble protein abundance (concentration: 1mM)	NP40-soluble protein abundance (concentration: 2mM)	NP40-soluble protein abundance (concentration: 4mM)	NP40-soluble protein abundance (concentration: 6mM)	NP40-soluble protein abundance (concentration: 8mM)	NP40-soluble protein abundance (concentration: 10mM)
ZFAND5 (UniProt O76080)	0.856 ± 0.05	0.874 ± 0.064	0.876 ± 0.054	0.933 ± 0.044	0.822 ± 0.036	0.846 ± 0.084
UniProt O94822 and related entries	1.08 ± 0.032	1.09 ± 0.1	1.05 ± 0.02	1.04 ± 0.033	1.07 ± 0.058	1.09 ± 0.069
AHSA1 (UniProt O95433)	0.986 ± 0.07	0.982 ± 0.061	0.944 ± 0.062	0.97 ± 0.077	0.958 ± 0.07	0.94 ± 0.057
UniProt O60858 and related entries	1.08 ± 0.024	1.102 ± 0.0075	1.05 ± 0.083	1.06 ± 0.067	1.06 ± 0.059	1.06 ± 0.046
UniProt O75410 and related entries	0.944 ± 0.065	0.954 ± 0.032	0.9509 ± 0.0038	0.97 ± 0.013	0.902 ± 0.03	0.908 ± 0.047
GIGYF1 (UniProt O75420)	1.24 ± 0.13	1.28 ± 0.11	1.25 ± 0.039	1.25 ± 0.083	1.18 ± 0.083	1.23 ± 0.099
MAN1A2 (UniProt O60476)	0.989 ± 0.067	0.992 ± 0.018	1.01 ± 0.031	0.984 ± 0.046	0.982 ± 0.017	0.987 ± 0.086
SNUPN (UniProt O95149)	0.995 ± 0.11	1.01 ± 0.1	0.998 ± 0.046	0.964 ± 0.11	0.998 ± 0.037	0.993 ± 0.038
